Measured values as given in patent US20250340902A1, “GENE THERAPY FOR BVES-RELATED DISORDERS” (OHIO STATE INNOVATION FOUNDATION, priority 2022, published 2025).
These are yes or no findings as the source states them, for the method shown. In cells and extracts the contact can be indirect. Some binding calls cover weakened binding; strength is not graded here. Tags and fused reporters may be left off the sequences shown.

Sequences of proteins named here, by UniProt entry; tags and fusion partners are left off. A change or cut given only in a name is not applied to a line headed by its entry.
UniProt Q8NE79: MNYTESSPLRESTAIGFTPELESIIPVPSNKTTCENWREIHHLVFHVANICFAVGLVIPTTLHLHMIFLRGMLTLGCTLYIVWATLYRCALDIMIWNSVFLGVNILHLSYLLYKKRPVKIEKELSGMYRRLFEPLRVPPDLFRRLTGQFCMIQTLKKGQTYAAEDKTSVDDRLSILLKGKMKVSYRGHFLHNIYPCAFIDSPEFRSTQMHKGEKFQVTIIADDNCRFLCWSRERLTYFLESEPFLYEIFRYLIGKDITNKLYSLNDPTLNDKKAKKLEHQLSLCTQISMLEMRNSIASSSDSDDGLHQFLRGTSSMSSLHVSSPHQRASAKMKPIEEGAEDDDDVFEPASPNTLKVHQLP

Key:
[1] = target: T1, Flag-tagged ADCY9 (pCMV3-ADCY9-FLAG, Sino Biological #HG19950-CF) (UniProt O60503); experiment: co-IP from co-transfected COS-1 cells
T1 sequence (looked up): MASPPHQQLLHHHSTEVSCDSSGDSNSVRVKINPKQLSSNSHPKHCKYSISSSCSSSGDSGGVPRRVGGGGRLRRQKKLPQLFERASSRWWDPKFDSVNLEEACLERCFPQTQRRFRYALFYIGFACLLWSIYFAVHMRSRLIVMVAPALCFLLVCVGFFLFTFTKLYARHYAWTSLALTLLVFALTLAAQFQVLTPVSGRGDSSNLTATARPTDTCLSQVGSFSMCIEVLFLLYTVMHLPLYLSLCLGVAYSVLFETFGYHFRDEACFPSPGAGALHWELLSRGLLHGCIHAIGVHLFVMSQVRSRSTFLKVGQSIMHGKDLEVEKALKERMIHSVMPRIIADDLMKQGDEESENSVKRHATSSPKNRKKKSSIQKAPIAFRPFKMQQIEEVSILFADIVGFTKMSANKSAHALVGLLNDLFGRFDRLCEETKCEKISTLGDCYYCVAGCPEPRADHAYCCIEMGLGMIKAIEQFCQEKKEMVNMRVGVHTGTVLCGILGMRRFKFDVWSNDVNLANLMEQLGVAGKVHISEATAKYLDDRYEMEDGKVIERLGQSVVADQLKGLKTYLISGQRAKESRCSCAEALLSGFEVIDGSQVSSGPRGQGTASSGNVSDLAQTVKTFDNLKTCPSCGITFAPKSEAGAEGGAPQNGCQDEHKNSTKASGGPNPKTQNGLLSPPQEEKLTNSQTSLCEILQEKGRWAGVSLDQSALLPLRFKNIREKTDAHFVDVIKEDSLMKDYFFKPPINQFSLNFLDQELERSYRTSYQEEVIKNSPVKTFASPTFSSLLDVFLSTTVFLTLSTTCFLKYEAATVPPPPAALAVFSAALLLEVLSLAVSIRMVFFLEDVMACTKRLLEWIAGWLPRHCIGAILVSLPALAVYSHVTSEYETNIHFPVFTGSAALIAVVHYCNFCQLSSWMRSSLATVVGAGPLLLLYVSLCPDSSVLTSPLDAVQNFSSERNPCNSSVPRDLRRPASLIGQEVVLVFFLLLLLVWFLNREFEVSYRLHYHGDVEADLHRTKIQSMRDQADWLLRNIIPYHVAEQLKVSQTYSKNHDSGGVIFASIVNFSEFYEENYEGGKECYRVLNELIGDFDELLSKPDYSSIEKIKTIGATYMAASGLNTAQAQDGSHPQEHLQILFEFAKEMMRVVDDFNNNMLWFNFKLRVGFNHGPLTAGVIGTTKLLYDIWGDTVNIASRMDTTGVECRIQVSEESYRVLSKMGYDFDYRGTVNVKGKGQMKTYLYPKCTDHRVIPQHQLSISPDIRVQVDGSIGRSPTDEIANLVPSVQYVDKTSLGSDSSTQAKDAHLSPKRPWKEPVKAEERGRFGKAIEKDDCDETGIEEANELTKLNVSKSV

[2] = target: T1, Flag-tagged ADCY9 (pCMV3-ADCY9-FLAG, Sino Biological #HG19950-CF); experiment: co-IP with Flag antibody, Cos-1 lysates

In the case of “human BVES fused with 3xHA tag (from UniProt Q8NE79 1-360)”, the binding [1] is reported as “binds” and the binding [2] is reported as “binds”.
